Some of these results come from one statement about several compounds together. For at least one compound, name, drawing or mass did not settle the structure.
Test system: IL-I beta
Experiment: Inhibition of IL-I beta release by LPS-stimulated TH1 cells
Assay type: cell-based
Details: at 10^−7 M and 10^−5 M
Experimental: The inhibition of IL-I beta release by alpha-2-adrenergic agonists, induced by LPS stimulation of TH1 cells, is measured under control conditions (dexamethasone).

## NC(=O)c1cccc(Cc2c[nH]cn2)c1O [Mivazerol]
  efficacy relative to DEX (10^−7 M): 80-90%

Reference: patent US9446065B2, “Pharmaceutical composition for use in the treatment and/or the prevention of osteoarticular diseases” (BONE THERAPEUTICS, priority 2008, dated 2016)
